Experimental findings from PubChem BioAssay are described below.

The other results are listed elsewhere or left out. Further columns of the screen follow, without active or inactive calls. Peptide text beside a SMILES is read from it. * marks the point of attachment. For = O=C*

A short description of the experiment: protection against mutant huntingtin cytotoxicity, PC12 cells, LDH release (AID 1610). Particulars: PC12 mutant huntingtin toxicity, final LDH at 4 uM, stronger effect = lower value.
`OC(Cn1cncn1)(Cn1cncn1)c1ccc(F)cc1F` displayed a normalised LDH release of 0.907.
`CC1(C)S[C@@H]2[C@H](NC(=O)COc3ccccc3)C(=O)N2[C@H]1C(=O)O` showed a normalised LDH release of 0.84.
As for `NS(=O)(=O)c1cc(C2(O)NC(=O)c3ccccc32)ccc1Cl` (stereo not given), the figure is 1.
In turn, `Cc1cccc(C)c1OCC(C)N` (stereo not given) returned a normalised LDH release of 0.984.
As for `CCO/C([O-])=N/c1c[n+](N2CCOCC2)no1`, the figure is 0.795.
`CC(C)(S)C(N)C(=O)O` (stereo not given) displayed a normalised LDH release of 0.678.
For `CC(=O)Nc1ccc(O)cc1`, the normalised LDH release worked out at 0.815.
For the compound `CN1C2CC[C@H]1CC(OC(=O)C(O)c1ccccc1)C2` (stereo not given in full), the normalised LDH release worked out at 0.929.
The result for `NC12CC3CC(CC(C3)C1)C2` reads 1.1; that for `CC(=O)Oc1c(C)c(C)c2c(c1C)CCC(C)(CCCC(C)CCCC(C)CCCC(C)C)O2` (stereo not given), 1.02; that for `CC(=O)NC1SCCC1=O` (stereo not given), 0.8.
`COc1ccc2cc([C@H](C)C(=O)O)ccc2c1` came in with a normalised LDH release of 1.03.
`CC[C@H]1CN2CCc3cc(OC)c(OC)cc3C2C[C@@H]1CC1NCCc2cc(OC)c(OC)cc21` (stereo not given in full) showed a normalised LDH release of 0.774.
`O=C1C(O)=C(O)C(=O)C(O)=C1O` registered a normalised LDH release of 0.572.
In turn, `CC1(C)C2CC[C@]3(C)C(C(=O)C=C4[C@H]5C[C@@](C)(C(=O)O)CC[C@]5(C)CC[C@]43C)[C@@]2(C)CC[C@@H]1O` (stereo not given in full) gave a normalised LDH release of 0.743.
Compound `CC[C@H](C)C(=O)O[C@H]1CCC=C2C=C[C@H](C)C(CCC3C[C@@H](O)CC(=O)O3)[C@H]21` (stereo not given in full) returned a normalised LDH release of 1.68.
On to `COC1=CC(C)[C@@H]2C[C@H]3OC(=O)C[C@H]4C(C)=C(OC)C(=O)C([C@@]34C)[C@@]2(C)C1=O` (stereo not given in full), for which the normalised LDH release was 1.09.
The result for `CC(C)NCC(O)COc1cccc2[nH]ccc12` (stereo not given) reads 0.981; that for `Cc1c(N(C)CS(=O)(=O)O)c(=O)n(-c2ccccc2)n1C`, 1.18.
The result for `CCCOc1ccc2nc(NC(=O)OC)[nH]c2c1` reads 1.01.
As for `CCN(CCCCOC(=O)c1ccc(OC)c(OC)c1)C(C)Cc1ccc(OC)cc1` (stereo not given), the figure is 0.736; as for `CCn1cc(C(=O)O)c(=O)c2cc3c(cc21)OCO3`, 0.912; as for `NC(=O)c1ccc[n+]([C@@H]2O[C@H](COP(=O)([O-])OP(=O)(O)OC[C@H]3O[C@@H](n4cnc5c(N)ncnc54)[C@H](OP(=O)(O)O)[C@@H]3O)[C@@H](O)[C@H]2O)c1`, 0.76.
In the case of `O[N+]1=CC=CCC1=S.On1ccccc1=S.[Zn]`, the normalised LDH release was determined as 0.876.
As for `Cc1cc(C(C)(C)C)c(O)c(C)c1CC1=NCCN1`, the figure is 0.955.
On to `CO[C@@]1(NC(=O)Cc2cccs2)C(=O)N2C(C(=O)O)=C(COC(N)=O)CS[C@@H]21`, for which the normalised LDH release stood at 1.06.
The result for `NS(=O)(=O)c1cc2c(cc1C(F)(F)F)NC(Cc1ccccc1)NS2(=O)=O` (stereo not given) reads 0.924.
Turning to `CN(C)c1nc(N(C)C)nc(N(C)C)n1`, the normalised LDH release stood at 0.807.
In turn, `Nc1ccc(S(=O)(=O)NC(=O)c2ccccc2)cc1` registered a normalised LDH release of 1.07.
As for `N[C@H](Cc1ccccc1)C(=O)O`, the figure is 0.527; as for `CCn1cc(C(=O)O)c(=O)c2cc(F)c(N3CCNC(C)C3)c(F)c21` (stereo not given), 0.171; as for `CCC(=O)O[C@H]1[C@H](O[C@@H]2[C@@H](C)[C@H](O[C@H]3C[C@@](C)(OC)[C@@H](O)[C@H](C)O3)[C@@H](C)C(=O)O[C@H](CC)[C@@](C)(O)[C@H](O)[C@@H](C)C(=O)[C@H](C)C[C@@]2(C)O)O[C@H](C)C[C@@H]1N(C)C`, 0.959.
On to `CN[C@@H]1[C@H](O)[C@H](NC)[C@H]2O[C@@]3(O)C(=O)C[C@@H](C)O[C@H]3O[C@@H]2[C@H]1O`, for which the normalised LDH release stood at 0.876.
As to `CNCCCC12CCC(c3ccccc31)c1ccccc12`, the normalised LDH release was determined as 1.03.
As for `NC(N)=NCCCCN=C(N)N`, the figure is 0.986; as for `CC(C(=O)O)c1ccc(N2Cc3ccccc3C2=O)cc1` (stereo not given), 0.937.
The result for `O=c1cc(CO)occ1O` reads 0.94; that for `CSCCC(NC=O)C(=O)NC(Cc1ccccc1)C(=O)O` (stereo not drawn) (For-Met-Phe-OH; configuration not given here), 1.4.
As for `NCCCCC(N)C(=O)NCC(=O)NC(Cc1cnc[nH]1)C(=O)NC(CCCCN)C(=O)O` (stereo not given) (H-KGHK-OH; configuration not given here), the figure is 1.08; as for `C[C@H](CCC(=O)O)[C@H]1CCC2C3C(CC[C@@]21C)[C@@]1(C)CC[C@@H](O)C[C@H]1C[C@H]3O` (stereo not given in full), 0.987.
